Measurements taken from publication doi:10.1101/2022.07.08.499162.
Construct, isoform or probe ends are uncertain for at least one entry. For some of these results: The comparison behind a weaker result is the experiment's own reference, which may not be listed here. At least one verdict was read from the data and is not stated in words by the source. Protein sequences can lack the tags named with them.

How the values were obtained:
UPF1-HD WT (human) [1] = tested on: T1, UPF1-HD WT (human); assay: fluorescence anisotropy dissociation; conditions: prebound, ATP-stimulated dissociation with 2 mM ATP
T1 sequence (looked up, limits assumed): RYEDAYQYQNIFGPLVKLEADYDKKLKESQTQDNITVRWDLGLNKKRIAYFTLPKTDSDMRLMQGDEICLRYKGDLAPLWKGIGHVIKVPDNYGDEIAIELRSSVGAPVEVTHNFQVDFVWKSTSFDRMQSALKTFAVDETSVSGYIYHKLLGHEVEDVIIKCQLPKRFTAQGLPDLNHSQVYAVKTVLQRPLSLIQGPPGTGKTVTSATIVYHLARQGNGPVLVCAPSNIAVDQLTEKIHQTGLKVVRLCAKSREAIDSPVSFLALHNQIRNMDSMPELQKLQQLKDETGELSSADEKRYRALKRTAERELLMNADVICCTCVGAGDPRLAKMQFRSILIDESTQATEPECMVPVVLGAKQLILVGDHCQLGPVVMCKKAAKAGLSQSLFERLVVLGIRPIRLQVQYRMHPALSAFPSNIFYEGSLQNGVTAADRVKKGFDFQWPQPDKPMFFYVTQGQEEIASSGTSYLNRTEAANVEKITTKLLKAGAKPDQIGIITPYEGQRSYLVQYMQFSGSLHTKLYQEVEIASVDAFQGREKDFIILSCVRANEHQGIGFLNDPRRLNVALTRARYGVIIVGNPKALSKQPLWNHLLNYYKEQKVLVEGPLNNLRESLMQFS

UPF1-HD WT (human) [2] = tested on: T1, UPF1-HD WT (human); assay: fluorescence anisotropy
[3] = 1 mM ATP, 2 hr, weaker than with AMP-PNP

Sequence | binding result (UPF1-HD WT (human) [1]) | binding result (UPF1-HD WT (human) [2]; 1 mM AMP-PNP, 2 hr) | binding result (UPF1-HD WT (human) [2]; [3]) | binding result (UPF1-HD WT (human) [2]; no ATP, range over the assays)
GTGTGCGTACAACTAGCTGACAAAAACACAAAACAAAA / AGCTAGTTGTACGCACAC [20mer-fad + 18mer_3AF488 (20 nt 3' overhang)] | binds | – | – | –
GTGTGCGTACAACTAGCTGACAAAAACACAAAACAAAAGACAAAAACACAAAACAAAAGACAAAAACACAAAACAAAA / AGCTAGTTGTACGCACAC [60mer-fad + 18mer_3AF488 (60 nt 3' overhang)] | binds | – | – | –
AGCTAGTTGTACGCACACTGCATTGCAATCGAATCGAA [38mer_5AF488] | – | binds more weakly | binds more weakly | binds
GTGTGCGTACAACTAGCTGACAAAAACACAAAACAAAAGACAAAAACACAAAACAAAA / AGCTAGTTGTACGCACAC [40mer-fad + 18mer_3AF488 (40 nt 3' overhang)] | binds | – | – | –
GTGTGCGTACAACTAGCTGACAAAAACACAAAACAAAAGACAAAAACACAAAACAAAAGACAAAAACACAAAACAAAAGACAAAAACACAAAACAAAA / AGCTAGTTGTACGCACAC [80mer-fad + 18mer_3AF488 (80 nt 3' overhang)] | binds | – | – | –
AGCTAGTTGTACGCACAC [18mer_5AF488] | – | binds more weakly | binds more weakly | binds
